{
  "source": "paper PMC8346560",
  "key": {"Dpb3 + Dpb4": {"test_system": "Dpb3 + Dpb4", "assay": "EMSA", "conditions": "0-20 pmol protein, 1.5 pmol DNA in 50 uL, one shifted band, 20 mM HEPES-NaOH pH 7.5, 0.5 mM EDTA, 0.05% NP-40, 10% glycerol, 60 ug/mL BSA, no added salt stated, on ice 10 min, recombinant protein, protein details: C-terminal Strep-tag,C-terminal 6xHis, label: 32P"}, "Dls1 + Dpb4": {"test_system": "Dls1 + Dpb4", "assay": "EMSA", "conditions": "0-160 pmol protein, 1.5 pmol DNA in 50 uL, one shifted band, 20 mM HEPES-NaOH pH 7.5, 0.5 mM EDTA, 0.05% NP-40, 10% glycerol, 60 ug/mL BSA, no added salt …, on ice 10 min, recombinant protein, protein details: C-terminal Strep-tag,C-terminal 6xHis, label: 32P"}},
  "note": "The exact form of at least one protein or probe is not confirmed.",
  "data": [
    {"sequence": "GACGCTGCCGAATTCTACCAGTGCCTTGCTAGGACATCTTTGCCCACCTGCAGGTTCACCC (double strand) [61-mer dsDNA]", "values": [
      {"measurement": "binding result", "setting": "Dpb3 + Dpb4", "value": "binds"},
      {"measurement": "binding result", "setting": "Dls1 + Dpb4", "value": "binds"}
    ]}
  ]
}
